{"source": "PubChem BioAssay AID1347076", "about": "(National Center for Advancing Translational Sciences (NCATS), 2019)", "note": "About 13,000 (3.2%) of roughly 400,000 compounds were called active. This list was built around the results that the source calls inconclusive (neither active nor inactive); the mix of calls is not that of the screen. Calls come from the whole dose curve; as a rule, active = well fitted cell-killing curve with a large enough effect; inconclusive = small, poorly fitted or top-dose-only effect, or effect the other way; inactive = flat fitted curve, though single readings scatter. A potency beside an inconclusive call is a rough fit, not a confirmed value. % is set by controls: 0 for no effect and ±100 for the full control effect; potency is the fitted concentration of half-maximal effect.", "data": [{"test": "qHTS assay for MDR1-selective chemotherapeutics: Primary screen using the drug-selected MDR subline cells KB-V1; note: nearly all actives have a fitted effect of over 60% in size", "conditions": "KB-V1 MDR cells viability, CellTiter-Glo, 72 h; activity change, negative = cytotoxicity: at 46.1 µM (top of the series)", "how_it_was_run": "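Following 72 h at 37 degrees C with compound, KB-V1 cell viability was read by CellTiter-Glo luminescence, medium being phenol-red-free DMEM plus 10% FBS; concentration-response parameters came from normalized, curve-fitted qHTS data.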", "values": [{"smiles": "O=C1COc2ccc(C(=O)/C=C/c3ccccc3)cc2N1", "Potency": "inconclusive: 23.1 µM [cytotoxic, partial curve]"}, {"smiles": "O=C(N/N=C/c1ccoc1)c1ccc([N+](=O)[O-])cc1", "Potency": "inconclusive: 18.4 µM [rising, single point]"}, {"smiles": "COc1c(C)cc(Br)cc1C(=O)Nc1cccc(NC(=O)c2ccco2)c1", "Potency": "active: 3.26 µM"}, {"smiles": "CC(/C=N\\NC(=O)CN1CCN(S(=O)(=O)c2ccc(C)cc2)CC1)=C\\c1ccccc1", "Potency": "inconclusive: 10.3 µM [cytotoxic, partial curve]"}, {"smiles": "CCn1c(C(=O)NCc2ccccn2)cc2sccc21", "Potency": "active: 14.6 µM"}, {"smiles": "CCOc1cc(/C=C2/SC(=S)NC2=O)ccc1OC(=O)c1ccco1", "activity change, negative = cytotoxicity": "inactive: 0%"}, {"smiles": "CCOc1ccc(-c2nnn(CC(=O)c3ccc4c(c3)OCCO4)n2)cc1OCC", "Potency": "inconclusive: 20.6 µM [cytotoxic, single point]"}, {"smiles": "CC(=O)Nc1cc(NC(C)=O)cc(C(=O)OCC(=O)N2CC(C)OC(C)C2)c1", "note": "(centres undefined)", "activity change, negative = cytotoxicity": "inactive: 0%"}, {"smiles": "CCCCOP(=O)(c1ccc(N(C)C)cc1)C(O)c1ccccc1F", "note": "(centres undefined)", "Potency": "inconclusive: 29.1 µM [cytotoxic, single point]"}, {"smiles": "CCn1cc(S(=O)(=O)c2ccc(Cl)cc2)c(=O)c2cc(OC)ccc21", "Potency": "active: 14.6 µM"}, {"smiles": "Cc1ccc(S(=O)(=O)NN=C2CCCc3ccccc32)cc1", "Potency": "inconclusive: 29.1 µM [cytotoxic, single point]"}, {"smiles": "CCc1ncc(CN2CCCC(C(=O)Nc3cccc(-c4ccc(F)cc4)c3)C2)cn1", "note": "(centres undefined)", "Potency": "inconclusive: 23.1 µM [cytotoxic, single point]"}, {"smiles": "Cc1nc2ccccc2n1CC(O)Cn1c2ccccc2c2ccccc21", "note": "(centres undefined)", "Potency": "inconclusive: 29.1 µM [cytotoxic, single point]"}, {"smiles": "CCCN(C#N)c1nc(NCC)nc(NC(C)C)n1", "Potency": "inconclusive: 9.2 µM [cytotoxic, partial curve]"}, {"smiles": "CCc1cc(/C=C/c2ccnc3ccccc23)ccc1N(C)C", "Potency": "inconclusive: 29.1 µM [cytotoxic, single point]"}, {"smiles": "CSCCC(NS(=O)(=O)c1ccccc1F)C(=O)N1CC=C(c2ccccc2)CC1", "note": "(centres undefined)", "Potency": "inconclusive: 7.31 µM [cytotoxic, partial curve]"}, {"smiles": "CC(C)C[C@H]1CNC(=S)N1C[C@H]1CCCN1C[C@H](Cc1ccc(O)cc1)N1C[C@H](Cc2ccc(O)cc2)N(CCc2ccccc2)C1=S", "activity change, negative = cytotoxicity": "inactive: -21.1%"}, {"smiles": "CCn1nc(C)cc1C(=O)N1CCCC(Nc2ccc(F)c(F)c2)C1", "note": "(centres undefined)", "Potency": "inconclusive: 20.6 µM [cytotoxic, single point]"}, {"smiles": "COc1ccc(NC(=O)c2sc(=O)n(Cc3cccc(C(F)(F)F)c3)c2C)cc1OC", "Potency": "inconclusive: 8.2 µM [cytotoxic, partial curve, poor fit]"}]}]}
